# Test results reported in patent US20140378387A1.
# Chains of the proteins cited; added tags and fusions are not shown. Residues count along the entry.
# UniProt P04797: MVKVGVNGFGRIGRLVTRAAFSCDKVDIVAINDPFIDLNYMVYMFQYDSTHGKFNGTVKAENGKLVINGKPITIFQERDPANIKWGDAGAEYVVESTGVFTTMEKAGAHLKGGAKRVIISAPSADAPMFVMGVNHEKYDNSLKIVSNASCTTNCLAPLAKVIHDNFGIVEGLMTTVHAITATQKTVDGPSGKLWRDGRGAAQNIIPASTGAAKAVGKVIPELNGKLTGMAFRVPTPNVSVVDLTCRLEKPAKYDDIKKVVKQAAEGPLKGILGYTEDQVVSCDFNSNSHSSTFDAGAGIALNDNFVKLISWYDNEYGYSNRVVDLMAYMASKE
# UniProt P19491, residues 22-883: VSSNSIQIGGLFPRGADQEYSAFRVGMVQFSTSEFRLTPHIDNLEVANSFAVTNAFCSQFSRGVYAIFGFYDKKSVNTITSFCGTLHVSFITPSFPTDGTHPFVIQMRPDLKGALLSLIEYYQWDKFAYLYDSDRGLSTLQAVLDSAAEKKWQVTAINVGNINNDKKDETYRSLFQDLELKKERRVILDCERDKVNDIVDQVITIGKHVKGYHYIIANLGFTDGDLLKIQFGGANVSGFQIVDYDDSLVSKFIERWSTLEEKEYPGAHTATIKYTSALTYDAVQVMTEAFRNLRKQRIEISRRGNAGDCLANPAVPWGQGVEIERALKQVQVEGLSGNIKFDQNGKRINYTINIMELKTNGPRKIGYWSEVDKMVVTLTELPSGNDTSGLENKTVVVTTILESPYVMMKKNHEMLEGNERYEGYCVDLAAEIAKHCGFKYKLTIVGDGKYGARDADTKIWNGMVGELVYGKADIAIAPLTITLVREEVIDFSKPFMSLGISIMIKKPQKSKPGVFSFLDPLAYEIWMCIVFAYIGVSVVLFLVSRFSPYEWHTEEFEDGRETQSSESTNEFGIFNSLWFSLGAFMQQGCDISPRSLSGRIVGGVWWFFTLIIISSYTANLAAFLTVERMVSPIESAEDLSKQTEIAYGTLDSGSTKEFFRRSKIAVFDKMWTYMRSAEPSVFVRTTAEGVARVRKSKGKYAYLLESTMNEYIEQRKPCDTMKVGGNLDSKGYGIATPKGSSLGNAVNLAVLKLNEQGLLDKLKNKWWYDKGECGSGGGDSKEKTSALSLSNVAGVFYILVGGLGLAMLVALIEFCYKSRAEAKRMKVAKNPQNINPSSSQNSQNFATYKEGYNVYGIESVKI
# Results are given in words; binding and its absence hold for the method and conditions named. In cells and extracts the contact can be indirect. Some binding calls cover weakened binding; strength is not graded here.
# Legend:
# [1] = target: GAPDH (glyceraldehyde-3-phosphate dehydrogenase), rat, endogenous (rat) (UniProt P04797); experiment: co-immunoprecipitation from rat spinal cord protein extract with a GluR2 antibody
# [2] = target: GAPDH (glyceraldehyde-3-phosphate dehydrogenase), rat, endogenous (rat) (UniProt P04797); experiment: co-immunoprecipitation from rat spinal cord tissue with a GluR2 antibody
substance,measurement,setting,value
"GluR2 subunit of AMPAR (rat, endogenous, from spinal cord protein extract) (from UniProt P19491 22-883) (receptor)",binding,[1],binds
same,binding,[2],binds
